Results published in patent US20230080534A1, “SEMG2 ANTIBODY AND USE THEREOF” (SHANGHAI BIOTROY BIOTECHNIQUE CO., LTD., priority 2020, published 2023).
Some results were stated once for a whole list of compounds, not compound by compound.

T1: SEMG2 (Homo sapiens, UniProt Q02383)
T1 sequence (Q02383 24-582): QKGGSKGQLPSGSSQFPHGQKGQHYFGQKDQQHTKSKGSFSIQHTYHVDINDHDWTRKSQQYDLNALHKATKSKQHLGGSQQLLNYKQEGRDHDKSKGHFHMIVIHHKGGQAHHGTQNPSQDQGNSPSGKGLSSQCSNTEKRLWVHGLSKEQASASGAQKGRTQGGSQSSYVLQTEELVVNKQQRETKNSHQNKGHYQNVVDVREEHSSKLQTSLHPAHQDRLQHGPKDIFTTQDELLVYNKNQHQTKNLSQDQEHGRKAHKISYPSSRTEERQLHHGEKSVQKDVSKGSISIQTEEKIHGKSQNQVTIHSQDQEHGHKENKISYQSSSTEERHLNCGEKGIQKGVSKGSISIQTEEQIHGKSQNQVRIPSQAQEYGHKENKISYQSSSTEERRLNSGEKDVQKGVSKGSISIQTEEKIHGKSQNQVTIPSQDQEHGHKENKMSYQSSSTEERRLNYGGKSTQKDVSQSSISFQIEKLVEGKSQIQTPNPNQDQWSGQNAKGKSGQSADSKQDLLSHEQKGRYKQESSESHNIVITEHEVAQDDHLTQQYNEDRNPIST


Columns and labels:
SEMG2 = biological target: T1, SEMG2; assay: ELISA binding of affinity matured fully human antibodies to SEMG2; details: FIG. 21B-D
[1] = biological target: T2, BSA-S2 (497-509) (BSA-SP7) (Homo sapiens, UniProt Q02383); assay: ELISA binding of affinity matured fully human antibodies to BSA-SEMG2(497-509); details: FIG. 21B-D
T2 construct: for SEMG2 and BSA-S2 (497-509) (i.e., BSA-SP7); made in house; host or cells: chemical synthesis, coupled to BSA

Molecule | affinity for SEMG2 relative to that of the parent antibodies (SEMG2) | affinity for BSA-S2 (497-509) relative to that of the parent antibodies [1]
96-10R-10: affinity matured fully human antibody from H88-96, VH SEQ ID NO:99, VL SEQ ID NO:57 (antibody, V domains shown, UNSURE (1)..(124) VH; UNSURE (1)..(107) VL) VH: QVQLLESGGGLVQPGGSLRLSCSASGFTFSSRAMHWVRQAPGKGLEYVSAISSNGGSTYYADSVKGRFTISRDNSKNTLYLQMSSLRAEDTAVYYCVIEGGSTGSTTSGAFDIWGQGTMVTVSS VL: DIQMIQSPPSVSASVGDTVTIACRANQGIDSWLAWYQQKPGRAPKLLIYSASRLQSGVPSRFSGGGSGTDFALTISNLQPEDFATYYCQQALSLPITFGQGTRLEIK | more than 10 fold | more than 10 fold
96-10V-10: affinity matured fully human antibody from H88-96, VH SEQ ID NO:100, VL SEQ ID NO:57 (antibody, V domains shown, UNSURE (1)..(124) VH; UNSURE (1)..(107) VL) VH: QVQLLESGGGLVQPGGSLRLSCSASGFTFSSYAMHWVRQAPGKGLEYVSAISSNGGSTYYADSVKGRFTISRDNSKNTLYLQMSSLRAEDTAVYYCVIEGGSTGSTVSGAFDIWGQGTMVTVSS VL: DIQMIQSPPSVSASVGDTVTIACRANQGIDSWLAWYQQKPGRAPKLLIYSASRLQSGVPSRFSGGGSGTDFALTISNLQPEDFATYYCQQALSLPITFGQGTRLEIK | more than 10 fold | more than 10 fold
